Assay [1] relates to SARS-CoV-2 -1 PRF reporter mCherry-FSE-GFP(-1). Nature of the assay: mCherry (red) intensity as percent of control; higher = higher upstream reporter expression. The note with it: 10 µM; 24 h; HEK293T.
The test system is the same in assay [2]. Nature of the assay: percent effect, decrease of GFP/mCherry ratio (-1 PRF reporter) relative to controls; higher = stronger frameshift inhibition. The note with it: 10 µM; 24 h; HEK293T.

Molecules are shown by their SMILES. The list shows a part of the results. Single values are uncertain here, since repeats match poorly.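 HEK293T cells were given each compound shortly before transfection with a reporter in which red mCherry is followed by the SARS-CoV-2 frameshift element and then GFP in the −1 frame, so GFP appears only after frameshifting.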

In assay [1], `CSc1ccc2c(c1)C(N1CCN(C)CC1)Cc1ccccc1S2` (configuration not stated) registered a mCherry of 128%. The percent effect in assay [2] worked out at 2.57%.
In the same order, the values of `CCCCCN(CCCOC)C(=O)C(CCC(=O)O)NC(=O)c1ccc(Cl)c(Cl)c1` (configuration not stated) [loxiglumide] are 82.3% and -1.22%.
In assay [1], `N[C@@H]1CONC1=O` [cycloserine] yielded a mCherry of 101%. Besides, in assay [2], the percent effect was -8.67%.
With `CC(C)(CO)[C@@H](O)C(=O)NCCC(=O)O` [calcium pantothenate], the mCherry in assay [1] came to 102%. For the same molecule, the percent effect in assay [2] is -4.13%.
In the same order, the values of `C[C@@H]1CC[C@@]2(OC1)O[C@H]1C[C@H]3[C@@H]4CC[C@H]5C[C@@H](O[C@@H]6O[C@H](CO)[C@@H](O[C@@H]7O[C@H](CO)[C@@H](O)[C@H](O)[C@H]7O)[C@H](O)[C@H]6O)CC[C@]5(C)[C@H]4CC[C@]3(C)[C@H]1[C@@H]2C` [tiqueside] are 99.9% and -4.53%.
The matching figures for `Cc1cccc(C)c1NC(=O)CN1CCN(CCCC(c2ccc(F)cc2)c2ccc(F)cc2)CC1` [lidoflazine]: 36.6% and -10.2%.
In assay [1], `CCOc1ccc(S(=O)(=O)O)c2cccnc12` [actinoquinol] returned a mCherry of 91.3%. The percent effect in assay [2] is -7.67%.
In assay [1], `CCCC(CCC)C(N)=O` [valpromide] registered a mCherry of 81.1%. In assay [2], the percent effect was -5.6%.
`CC[N+](CC)(CC)CCOC(=O)c1cc(OC)c(OC)c(OC)c1` [troxonium tosilate] yielded a mCherry in assay [1] of 74.7%. For the same molecule, the percent effect in assay [2] is -9.2%.
In the same order, the values of `C[C@]12CCC(=O)C=C1CC[C@H]1[C@@H]3CC[C@](O)(C(=O)CO)[C@@]3(C)C[C@H](O)[C@@]12F` [fludrocortisone] are 121% and -8.75%.
In assay [1], `O=S1(=O)c2cccc3cccc(c23)N1CCCN1CCN(c2ccc(F)cc2)CC1` [fananserin] had a mCherry of 98.7%. For the same molecule, the percent effect in assay [2] is -2.79%.
In turn, `Cc1c(OCC(F)(F)F)ccnc1C[S@@+]([O-])c1nc2ccccc2[nH]1` [dexlansoprazole] showed a mCherry in assay [1] of 39.2%. In addition, the percent effect in assay [2] was -4.09%.
Molecule `C[N+](C)(C)CCO.[Cl-]` [choline chloride] registered a mCherry in assay [1] of 84.8%. Besides, the percent effect in assay [2] was -2.33%.
`CN1C(C(=O)Nc2ccccn2)=C(O)c2sc(Cl)cc2S1(=O)=O` [Lorcam] registered a mCherry in assay [1] of 103%. The percent effect in assay [2] was -0.492%.
For the molecule `O=S(O)CNc1ccc(S(=O)(=O)c2ccc(NCS(=O)O)cc2)cc1` [aldesulfone], the mCherry in assay [1] is 70.4%. Besides, in assay [2], the percent effect was -2.42%.
The matching figures for `CC(C)(O)C(C)(O)c1ccc(Cl)cc1` (configuration not stated) [phenaglycodol]: 72.2% and -8.11%.
`COc1cc([S+](C)[O-])ccc1-c1nc2cccnc2[nH]1` (configuration not stated) [sulmazole] yielded a mCherry in assay [1] of 103%. Besides, the percent effect in assay [2] is 0.558%.
For `CCCCN(CCCC)CCCOC(=O)c1ccc(N)cc1` [butacaine], the mCherry in assay [1] turned out to be 134%. Also, the percent effect in assay [2] came out at 1.65%.
Take `NCCC(O)(P(=O)(O)O)P(=O)(O)O` [Pamidronate·2Na·5H2O]: the mCherry in assay [1] turned out to be 77.2%. Moreover, the percent effect in assay [2] was -3.8%.
Consider `Cc1ncc([N+](=O)[O-])n1C`, for which, in assay [1], the mCherry came to 105%. Also, the percent effect in assay [2] amounted to 1.44%.
As for `CC(C)(C)c1ccc(CN2CCN(C(c3ccccc3)c3ccc(Cl)cc3)CC2)cc1` (configuration not stated) [buclizine], the mCherry in assay [1] was 104%. Besides, in assay [2], the percent effect is -2.4%.
Turning to `Cc1c(C(N)=O)cc([N+](=O)[O-])cc1[N+](=O)[O-]` [dinitolmide], the mCherry in assay [1] is 90%. For the same molecule, the percent effect in assay [2] is 0.749%.
The molecule `COC(=O)[C@H]1[C@H]2C[C@@H]3c4[nH]c5cc(OC)ccc5c4CCN3C[C@H]2C[C@@H](OC(=O)c2cc(OC)c(OC)c(OC)c2)[C@@H]1OC` yielded a mCherry in assay [1] of 104%. For the same molecule, the percent effect in assay [2] was -19%.
As to `CN(C)/N=N/c1[nH]cnc1C(N)=O`, in assay [1], the mCherry amounted to 87.4%. In addition, the percent effect in assay [2] was -1.48%.
With `CC1=C(C(=O)O)N2C(=O)[C@@H](NC(=O)[C@H](N)c3ccc(O)cc3)[C@H]2SC1`, the mCherry in assay [1] was determined as 98.8%. The percent effect in assay [2] was 0.537%.
`Nc1ccc(S(=O)(=O)[O-])cc1.Nc1ccc(S(=O)(=O)[O-])cc1.O.O.O.O.[Zn+2]` displayed a mCherry in assay [1] of 113%. For the same molecule, the percent effect in assay [2] is -3.75%.
`CC(=O)Oc1cc2c(s1)CCN(C(C(=O)C1CC1)c1ccccc1F)C2` (configuration not stated) yielded a mCherry in assay [1] of 119%. Besides, the percent effect in assay [2] was -2.5%.
In assay [1], `C/C=C\C=C\[C@@H]1O[C@](O)([C@H](CC)C(=O)NC/C=C/C=C(\C)[C@@H](OC)[C@H](C)[C@@H]2O[C@H](/C=C/C=C/C=C(\C)C(=O)c3c(O)cc[nH]c3=O)[C@H](O)[C@@H]2O)[C@H](O)[C@H](O)C1(C)C` [mocimycin] showed a mCherry of 107%. Further, the percent effect in assay [2] was -6.01%.
In the case of `Nc1cc(C(Cl)=C(Cl)Cl)c(S(N)(=O)=O)cc1S(N)(=O)=O` [clorsulon], in assay [1], the mCherry amounted to 93.6%. For the same molecule, in assay [2], the percent effect was -12%.
In assay [1], `CCC(=O)O[C@H]1[C@H](O[C@@H]2[C@@H](C)[C@H](O[C@H]3C[C@@](C)(OC)[C@@H](O)[C@H](C)O3)[C@@H](C)C(=O)O[C@H](CC)[C@@](C)(O)[C@H](O)[C@@H](C)C(=O)[C@H](C)C[C@@]2(C)O)O[C@H](C)C[C@@H]1N(C)C` came in with a mCherry of 118%. Further, in assay [2], the percent effect stood at 1.31%.
Consider `CC[N+](CC)(CC)CCOc1ccc(/C=C/c2ccccc2)cc1` [stilonium iodide], for which the mCherry in assay [1] amounted to 66.8%. Further, in assay [2], the percent effect was -9.49%.

(Values after the supplement of paper PMC8256030.)
